Measurements published in PubChem BioAssay AID493014 (National Center for Advancing Translational Sciences (NCATS), 2011).
The list shows a part of the results. Further columns of the screen follow, without active or inactive calls. Most of these compounds were active or inconclusive in the main read-out, so they are no random draw. The note in brackets gives the kind of curve behind each potency; many fits are weak.

Assay: qHTS Assay to Find Inhibitors of Chronic Active B-Cell Receptor Signaling
Settings: ABC-DLBCL IkBa-CBG/CBR reporter, luminescence ratio (green luciferase fused to IkBa over red control in TMD8 lymphoma cells), 4 h
In short: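 TMD8 human ABC-DLBCL cells with doxycycline-inducible IκBα–green luciferase fusion and unfused red luciferase, in 0.5% FBS medium; compounds up to 46 uM, 4 h at 37C. Green/red luminescence ratio, filter-overlap corrected, fitted to concentration-response curves.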

[1] = measured here: CBR red luminescence, cell number
[2] = measured here: IkBa-CBG green luminescence

| Structure (SMILES) | AC50 [1] | AC50 [2] |
| --- | --- | --- |
| COc1ccccc1N1C(=O)CC(Sc2nc(C)cc(C)n2)C1=O (stereo unspecified) | 0.116 µM [rising, single point] | – |
| CCCNC(=O)c1ccc2c(c1)C1C3CCC(C3)C1C(c1ccccc1)N2 (stereo unspecified) | 9.2 µM [falling, partial curve, poor fit] | – |
| C=C(C)Cn1cnc2c(oc3nc4c(cc32)CCCC4)c1=O | 3.55 µM [rising, full curve] | – |
| COC(=O)C1=C(C)N(C(C)C)C(=O)C1(NC(C)=O)C(F)(F)F (stereo unspecified) | 20.6 µM [rising, single point] | – |
| C/C(=N\NC(=O)c1nn(C)cc1Br)c1ccc(NC(=O)c2ccncc2)cc1 | 23.1 µM [falling, single point] | – |
| N#C/C(=C\c1ccc([N+](=O)[O-])cc1)C(=O)Nc1ccccc1O | 2.06 µM [falling, full curve, poor fit] | – |
| COc1ccc(OCCSc2ncc(CO)n2C)cc1 | 0.316 µM [rising, full curve, poor fit] | – |
| Cc1cc([N+](=O)[O-])nn1CC(=O)N/N=C/c1ccc(O)cc1O | 8.91 µM [falling, partial curve, poor fit] | – |
| COc1cc(C(=O)OCc2ccccc2C#N)ccc1OCC(=O)N1CCOCC1 | 11.6 µM [rising, partial curve] | – |
| C=CC[C@@H](Cc1ccc(F)cc1)C(=O)OC[C@H]1CCCN1C(=O)[C@H](CC=C)CC(=O)N[C@H](CO)Cc1ccccc1 | 20.6 µM [falling, single point] | – |
| CN1CCN(C(=O)/C(=C/c2ccco2)NC(=O)c2ccccc2)CC1 | 20 µM [rising, partial curve, poor fit] | – |
| Cc1cc(S(=O)(=O)N(Cc2ccccc2)Cc2ccc(N(C)C)cc2)ccc1-n1cnnn1 | 0.231 µM [falling, full curve, poor fit] | – |
| Cc1nnc(SCc2ccc(C(=O)c3ccc(Cl)cc3)o2)n1-c1ccccc1 | 20.6 µM [falling, single point] | 29.1 µM [rising, partial curve, poor fit] |
| COC(=O)C1=C(C)N=C2SCCC(=O)N2C1/C=C/c1ccccc1 (stereo unspecified) | 14.1 µM [rising, single point] | – |
| COc1cccc(-c2nnc(SCc3ccccn3)n2C)c1 | 16.4 µM [falling, single point] | – |
| CC(C)c1[nH]nc2c1C(c1ccco1)C(C#N)=C(N)O2 (stereo unspecified) | 5.62 µM [falling, single point] | 35.5 µM [falling, single point] |
| Cc1ccc(C)c(NC(=O)c2ccccc2O)c1 | 6.31 µM [rising, partial curve, poor fit] | – |
| CC(=O)Nc1ccc(/C=N/Nc2nc3ccccc3s2)cc1 | 17.8 µM [falling, single point] | – |
| COc1ccc(CSc2nnc(N)s2)cc1F | 35.5 µM [rising, single point] | – |
| O=C(N/N=C/c1ccc(Cl)cc1)c1cc(-c2cccnc2)nc2ccccc12 | – | 3.16 µM [falling, single point] |

Copied from the list:
AC50 [1], C=C(C)Cn1cnc2c(oc3nc4c(cc32)CCCC4)c1=O is entered as 3.55 µM [rising, full curve]
AC50 [1], COc1cc(C(=O)OCc2ccccc2C#N)ccc1OCC(=O)N1CCOCC1 is entered as 11.6 µM [rising, partial curve]
AC50 [1], Cc1cc([N+](=O)[O-])nn1CC(=O)N/N=C/c1ccc(O)cc1O is entered as 8.91 µM [falling, partial curve, poor fit]

(next part)

| Structure (SMILES) | AC50 [1] | AC50 [2] |
| --- | --- | --- |
| S=c1nc(-c2ccco2)[nH][nH]1 | 6.51 µM [rising, full curve] | – |
| O=C(Nc1cnccn1)c1csc2ccccc12 | 16.4 µM [falling, single point] | – |
| COC(=O)c1ccc(C(=O)OC)c(NC(=O)COC(=O)C23CC4CC(CC(O)(C4)C2)C3)c1 | 14.6 µM [rising, partial curve, poor fit] | – |
| COCCNC(=O)NC1(C(F)(F)F)Oc2ccc(Cl)cc2O1 (stereo unspecified) | 3.55 µM [rising, full curve] | – |
| CN(C(=O)CCOc1ccccc1)c1c(N)n(Cc2ccccc2)c(=O)[nH]c1=O | 20.6 µM [falling, single point] | – |
| CCCc1cc(=O)oc2c3c(c(Cl)cc12)OCN(CCCO)C3 | 0.178 µM [falling, full curve, poor fit] | – |
| Cc1ccc(NC(=O)CSc2ncn[nH]2)cc1S(=O)(=O)N1CCOCC1 | 11.2 µM [rising, partial curve] | – |
| O=C(Nc1cccc(S(=O)(=O)NC2=NCCC2)c1)c1cn(-c2ccccc2)nc1-c1ccc(F)cc1 | 16.4 µM [falling, partial curve, poor fit] | – |
| COc1ccccc1Nc1nn2c(=O)c3ccc(C(=O)NCc4cccs4)cc3nc2s1 | 7.94 µM [falling, partial curve] | – |
| Cc1nn(C(C)C)c(C)c1CN1CCC(C(=O)Nc2cccc(-c3cccc(F)c3)c2)CC1 | 12.6 µM [falling, partial curve] | – |
| COc1ccccc1/C=C/C=N/n1c(-c2ccccn2)n[nH]c1=S | 14.1 µM [falling, partial curve] | – |
| COc1ccc2c(c1)OC[C@H]1[C@H]2N2C(=O)c3cc(OC)c(OC)cc3NC(=O)[C@@]2(C)[C@H]1c1ccccc1 | 2.06 µM [rising, partial curve, poor fit] | – |
| Cc1cccc(C)c1OC(=O)Cc1ccccc1[N+](=O)[O-] | 7.08 µM [rising, partial curve, poor fit] | – |
| N#Cc1cccc(NC(=O)CSc2ccccc2)c1 | 3.66 µM [falling, single point] | – |
| COc1ccc(Cn2nnnc2C(c2cc3cc(C)ccc3[nH]c2=O)N2CCOCC2)cc1 (stereo unspecified) | 12.6 µM [falling, partial curve] | – |
| Cc1cc(C(=O)NNC(=O)CN2C(=O)NC(C)(c3ccccc3)C2=O)c(C)o1 (stereo unspecified) | 18.4 µM [falling, single point] | – |
| COc1cc(OC)cc(C(=O)N[C@H](C(=O)OCC(=O)c2ccc(C)c([N+](=O)[O-])c2)C(C)C)c1 | – | 4.11 µM [rising, partial curve, poor fit] |
| Cc1ccc(S(=O)(=O)N2[C@@H](c3ccc(Br)cc3)C(C(=O)O)=C[C@H]2CC2CCCC2)cc1 | 0.651 µM [falling, partial curve, poor fit] | – |
| CCOC(=O)C1=C(C)Nc2sc(C(=O)c3ccc(Br)cc3)c(N)c2C1c1ccc(C(=O)OC)cc1 (stereo unspecified) | 0.164 µM [rising, full curve, poor fit] | – |
